Source: US20140235776A1, “AMINOALCOHOL COMPOUNDS AND THEIR USE AS ZERO OR LOW VOC ADDITIVES FOR PAINTS AND COATINGS” (ANGUS CHEMICAL COMPANY, priority 2011, published 2014)

Experiment: Opacity of paint film after 5 freeze-thaw cycles (Sheen Micromatch Plus)
Settings: additive 2 wt %, 150 micron film dried 7 days

In order of falling “Opacity (Sample)” value:
1. OCC(O)CNCCN(CCNCC(O)CO)CC(O)CO (stereo not drawn) [F/T Agent 1, 3,3′-((((2,3-dihydroxypropyl)azanediyl)bis(ethane-2,1-diyl))bis(azanediyl))bis(propane-1,2-diol)]  95.96
2. OCC(O)CN(CCN(CC(O)CO)CC(O)CO)CCN(CC(O)CO)CC(O)CO (stereo not drawn) [F/T Agent 2, 3,3′,3″,3′′′-((((2,3-dihydroxypropyl)azanediyl)bis(ethane-2,1-diyl))bis(azanetriyl))tetrakis(propane-1,2-diol)]  95.9
3. CC(O)CO (stereo not drawn) [Propylene Glycol, propylene glycol, reference compound]  95.75
